From PubChem BioAssay AID1671190 (National Center for Advancing Translational Sciences (NCATS), 2021)
Several values for one entry are separate records, joined by “and”; a condition that tells them apart may be missing. Equal entries are not always repeated. About 6,100 (1.1%) of roughly 580,000 compounds were called active. Inconclusive means that the source gave no clear call. Such entries were picked first, then a sample of the others. Calls follow the shape of the dose curve; as a rule, active = well fitted inhibition curve with a large enough effect; inconclusive = small, poorly fitted or top-dose-only effect, or another doubt; inactive = no such curve, though single readings can be large or run the other way. Where the call is inconclusive, the potency comes from a doubtful curve fit.

Chains of the proteins cited; added tags and fusions are not shown. Lines headed by an entry give the natural chain unless they say otherwise; changes in a name come on top.
UniProt P18054: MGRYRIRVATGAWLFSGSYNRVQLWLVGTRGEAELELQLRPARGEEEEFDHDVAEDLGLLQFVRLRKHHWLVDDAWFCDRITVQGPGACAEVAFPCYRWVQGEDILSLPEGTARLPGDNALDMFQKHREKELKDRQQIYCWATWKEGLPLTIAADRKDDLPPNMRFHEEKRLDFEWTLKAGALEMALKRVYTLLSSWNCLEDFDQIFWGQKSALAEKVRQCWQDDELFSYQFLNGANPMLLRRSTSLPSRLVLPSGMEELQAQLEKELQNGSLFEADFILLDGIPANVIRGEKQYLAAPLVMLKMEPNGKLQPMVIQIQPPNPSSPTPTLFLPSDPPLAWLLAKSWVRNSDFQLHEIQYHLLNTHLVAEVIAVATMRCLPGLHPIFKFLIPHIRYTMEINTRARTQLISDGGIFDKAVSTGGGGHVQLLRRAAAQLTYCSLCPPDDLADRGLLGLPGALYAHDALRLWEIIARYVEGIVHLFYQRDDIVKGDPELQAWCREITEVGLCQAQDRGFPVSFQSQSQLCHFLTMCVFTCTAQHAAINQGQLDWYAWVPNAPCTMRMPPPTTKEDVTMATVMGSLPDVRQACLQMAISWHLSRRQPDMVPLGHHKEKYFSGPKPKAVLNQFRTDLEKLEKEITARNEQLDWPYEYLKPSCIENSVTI

molecular target: Polyunsaturated fatty acid lipoxygenase ALOX12 (Homo sapiens) (UniProt P18054); experiment: Primary qHTS assay for inhibitors of human arachidonate 12S-lipoxygenase (ALOX12): Round 2; conditions: purified 12hLO, xylenol orange hydroperoxide absorbance; series mostly up to 108 µM
Summary of the method: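 Purified human 12hLO at 150 nM in 25 mM Hepes, 0.01% Triton X-100, pH 7.0, preincubated 15 min at room temperature with compound. Reaction started with 40 uM arachidonic acid, 30 min at room temperature. Hydroperoxide measured by Fe-xylenol orange, 573/405 nm absorbance ratio.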
Potency is read from the fitted curve at half-maximal effect.

Row | Structure (SMILES) | Potency
1 | COc1ccc(C=C2SC(=S)NC2=O)c(OC)c1OC | inconclusive: 70.8 µM [inhibitor, partial curve, poor fit]
2 | COc1cccc(CC(=O)N2CCC3(CC2)NC(=O)N(c2ccccc2)N3)c1 | active: 3.16 µM
3 | O=c1cc(CO)oc(C(Nc2ccccn2)c2ccccc2Cl)c1O (configuration not stated) | inconclusive: 39.8 µM [inhibitor, partial curve, poor fit]
4 | Cc1cc(C)c2c(=O)n3c(nc2c1)C(Cc1ccc(O)cc1)NC(=O)c1cc2ccccc2cc1-3 (configuration not stated) | inconclusive: 50.1 µM [inhibitor, partial curve, poor fit]
5 | CS(=O)(=O)Oc1ccc2c(=O)c(-c3ccccc3)coc2c1 | inactive
6 | Cc1ccccc1-c1cnc2c(c1)C(=O)N([C@@H](C)CO)C[C@@H](C)[C@H](CN(C)Cc1ccccc1F)O2 | inconclusive: 39.8 µM [inhibitor, partial curve, poor fit]
7 | COc1cc(NS(=O)(=O)c2cccc(Br)c2)c(C(=O)O)cc1OC | inconclusive: 56.2 µM [inhibitor, partial curve, poor fit]
8 | CCN(Cc1ccc(C#CCCO)cc1)CC1CCCN(CCc2cccc(F)c2)C1 (configuration not stated) | inconclusive: 39.8 µM [inhibitor, partial curve, poor fit]
9 | CCCCN1C(=O)C(CC(=O)NC2CCCC2)CC(C(=O)N(C(C)C)C(C)C)=C1C (configuration not stated) | inconclusive: 35.5 µM [inhibitor, single point]
10 | O=C1CN(c2nc(-c3ccccc3)c3cc(Cl)ccc3n2)c2ccccc2N1 | inconclusive: 0.316 µM [inhibitor, full curve, poor fit]
11 | N#Cc1ccc(CN2CCn3c(nn(-c4cccc(Cl)c4)c3=O)C2)cc1 | inconclusive: 11.2 µM [inhibitor, partial curve, poor fit]
12 | O=C(CSC(=S)N1CCOCC1)c1cc(Br)cc(Br)c1O | inconclusive: 39.8 µM [inhibitor, partial curve, poor fit]
13 | O=C(NCCn1cccc1-c1nc(-c2ccc3c(c2)OCO3)no1)c1ccc2c(c1)OCO2 | inactive
14 | Cc1ccccc1-c1ccc2ncnc(NCCN3CCOCC3)c2c1 | inconclusive: 5.62 µM [inhibitor, full curve, poor fit]
15 | Cc1ccc(-c2csc(=S)[nH]2)cc1 | inactive and inconclusive: 50.1 µM [inhibitor, partial curve, poor fit]
16 | COc1ccccc1-c1nc(C#N)c(NCc2ccc(Cl)cc2)o1 | inactive
17 | COc1ccc(Nc2nc(-c3cccs3)cs2)cc1 | inconclusive: 1 µM [inhibitor, full curve, poor fit]

2 entries from above, with tabs.
Row	Structure (SMILES)	Potency
3	O=c1cc(CO)oc(C(Nc2ccccn2)c2ccccc2Cl)c1O (configuration not stated)	inconclusive: 39.8 µM [inhibitor, partial curve, poor fit]
4	Cc1cc(C)c2c(=O)n3c(nc2c1)C(Cc1ccc(O)cc1)NC(=O)c1cc2ccccc2cc1-3 (configuration not stated)	inconclusive: 50.1 µM [inhibitor, partial curve, poor fit]
